PubChem BioAssay AID1259254 – NCATS – 2017

Aim: 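Finding genes that stop cells copying their DNA twice in one cycle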 (primary screen)
System: human HCT116 colorectal cancer cells
Reagents: single siRNA against human genes
Duration: 3 days
Measured: 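Nuclei stained with Hoechst and imaged; cell-cycle phase assigned by DNA content; G2 share scaled per plate, non-targeting siRNA 0%, GMNN siRNA 100%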
Reading the numbers: G2 robust z-score and G2 cells, % of GMNN control: higher = more G2 cells, more excess DNA replication
Hit rule: 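Active siRNAs have a G2 robust z of 5 or more median absolute deviations over the median, which in these data means about 38% or higher of GMNN control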
The deposit covers about 59,000 reagents; this is an unselected part. About 1,550 of them (2.6%) count as active. 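G2 share is only a proxy for re-replication; each gene was hit by three separate siRNAs, and active genes were retested.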 Unmarked entries are inactive. The numbers tell different reagents against one gene apart. Further read-outs or replicates are left out here. Not stated in the record: the amount of reagent.

gene | reagent | G2 robust z-score | G2 cells, % of GMNN control
SFXN3 (sideroflexin 3) | 1 | -0.705 | -1.99
SFXN3 (sideroflexin 3) | 2 | 0.168 | 4.15
SFXN3 (sideroflexin 3) | 3 | 1.53 | 13.7
TTLL4 (tubulin tyrosine ligase like 4) | 1 | -0.226 | 1.38
TTLL4 (tubulin tyrosine ligase like 4) | 2 | 4.25 | 32.9
TTLL4 (tubulin tyrosine ligase like 4) | 3 | 1.31 | 12.2
SLC52A3 | 1 | -1.12 | -4.88
SLC52A3 | 2 | -0.658 | -1.66
SLC52A3 | 3 | -0.179 | 1.71
EP300 (EP300 lysine acetyltransferase) | 1 | 2.89 | 23.3
EP300 (EP300 lysine acetyltransferase) | 2 | 0.0551 | 3.36
EP300 (EP300 lysine acetyltransferase) | 3 | 0.0918 | 3.61
STOML2 (stomatin like 2) | 1 | -0.594 | -1.21
STOML2 (stomatin like 2) | 2 | -0.109 | 2.2
STOML2 (stomatin like 2) | 3 | 0.222 | 4.53
TMEM25 (transmembrane protein 25) | 1 | -0.298 | 0.87
TMEM25 (transmembrane protein 25) | 2 | 0.107 | 3.72
TMEM25 (transmembrane protein 25) | 3 | -0.228 | 1.36
LAMB2 (laminin subunit beta 2) | 1 | -0.697 | -1.94
LAMB2 (laminin subunit beta 2) | 2 | 0.577 | 7.03
LAMB2 (laminin subunit beta 2) | 3 | 0.494 | 6.45
RGS11 (regulator of G protein signaling 11) | 1 | -0.202 | 1.55
RGS11 (regulator of G protein signaling 11) | 2 | 2.92 | 23.5
RGS11 (regulator of G protein signaling 11) | 3 | 0.0862 | 3.57
LOC646778 (retired record) | 1 | -0.408 | 0.097
LOC646778 (retired record) | 2 | -0.0955 | 2.3
LOC646778 (retired record) | 3 | 3.67 | 28.8
ELK1P1 (ELK1 pseudogene 1) | 1 | -0.192 | 1.62
ELK1P1 (ELK1 pseudogene 1) | 2 | 1.85 | 16
ELK1P1 (ELK1 pseudogene 1) | 3 | 0.371 | 5.58
ACBD4 (acyl-CoA binding domain containing 4) | 1 | -0.34 | 0.575
ACBD4 (acyl-CoA binding domain containing 4) | 2 | -0.195 | 1.59
ACBD4 (acyl-CoA binding domain containing 4) | 3 | 1.68 | 14.8
UQCRQ (ubiquinol-cytochrome c reductase complex III subunit VII) | 1 | 3.13 | 25
UQCRQ (ubiquinol-cytochrome c reductase complex III subunit VII) | 2 | -0.836 | -2.92
UQCRQ (ubiquinol-cytochrome c reductase complex III subunit VII) | 3 | -0.4 | 0.156
GABRQ (gamma-aminobutyric acid type A receptor subunit theta) | 1 | -0.259 | 1.15
GABRQ (gamma-aminobutyric acid type A receptor subunit theta) | 2 | 0.141 | 3.96
GABRQ (gamma-aminobutyric acid type A receptor subunit theta) | 3 | -0.734 | -2.19
KCNQ4 (potassium voltage-gated channel subfamily Q member 4) | 1 | 1.72 | 15.1
KCNQ4 (potassium voltage-gated channel subfamily Q member 4) | 2 | 3.15 | 25.1
KCNQ4 (potassium voltage-gated channel subfamily Q member 4) | 3 | -0.827 | -2.85
MEIS2 (Meis homeobox 2) | 1 | 0.325 | 5.25
MEIS2 (Meis homeobox 2) | 2 | -1.49 | -7.53
MEIS2 (Meis homeobox 2) | 3 | 0.78 | 8.45
CXCL5 (C-X-C motif chemokine ligand 5) | 1 | -0.757 | -2.36
CXCL5 (C-X-C motif chemokine ligand 5) | 2 | -1.12 | -4.89
CXCL5 (C-X-C motif chemokine ligand 5) | 3 | 0.449 | 6.13
INSR (insulin receptor) | 1 | 2.43 | 20
INSR (insulin receptor) | 2 | -1.29 | -6.08
INSR (insulin receptor) | 3 | -0.00312 | 2.95
SIAH3 (siah E3 ubiquitin protein ligase family member 3) | 1 | 1.61 | 14.3
SIAH3 (siah E3 ubiquitin protein ligase family member 3) | 2 | 1.74 | 15.2
SIAH3 (siah E3 ubiquitin protein ligase family member 3) | 3 | -0.873 | -3.17
VPS35L (VPS35 endosomal protein sorting factor like) | 1 | 0.00852 | 3.03
VPS35L (VPS35 endosomal protein sorting factor like) | 2 | 1.14 | 11
VPS35L (VPS35 endosomal protein sorting factor like) | 3 | -0.455 | -0.236
SEMA3A (semaphorin 3A) | 1 | 0.305 | 5.11
SEMA3A (semaphorin 3A) | 2 | -0.734 | -2.19
SEMA3A (semaphorin 3A) | 3 | -0.804 | -2.69
NMRK1 (nicotinamide riboside kinase 1) | 1 | 0.517 | 6.61
NMRK1 (nicotinamide riboside kinase 1) | 2 | -0.343 | 0.553
NMRK1 (nicotinamide riboside kinase 1) | 3 | -1.07 | -4.59
BBOX1 (gamma-butyrobetaine hydroxylase 1) | 1 | 2.87 | 23.2
BBOX1 (gamma-butyrobetaine hydroxylase 1) | 2 | -0.851 | -3.02
BBOX1 (gamma-butyrobetaine hydroxylase 1) | 3 | 1.34 | 12.4
RGS18 (regulator of G protein signaling 18) | 1 | 6.54 (active) | 49
RGS18 (regulator of G protein signaling 18) | 2 | -0.44 | -0.125
RGS18 (regulator of G protein signaling 18) | 3 | 4.04 | 31.4
